At least one structure is not confirmed: it was looked up by name or label, or the drawing left a doubt.
Tests used:
Format in all cases: in vivo, human
[1] = test system: patients with non-alcoholic fatty liver disease; assay: NAFLD patients: self-administered symptom questionnaire
[2] = test system: patients with non-alcoholic fatty liver disease; assay: NAFLD patients: BMI, liver parameters (GGT, AST, ALT) and liver ultrasound grade, intravenous vs oral UDCA; details: intravenous UDCA as compared to oral UDCA
Experimental: Two groups of patients (each group consisting of 50 patients N=50 as disclosed in Table -1) with non-alcoholic fatty liver disease are taken and standardized with the diet of 1300 calories/day (30% proteins, 30% carbohydrates and 40% fat). The first group of patients was treated with 50 mg/kg/day UDCA orally for first two months (500 mg capsules swallowed after meals on average of 2-3 capsules after breakfast, 3-4 capsules after lunch and 3-4 capsules after dinner). The second group of patients was treated with intravenous schedule of UDCA at a dose of 3500 mg each other day (every 48 hours) for a total of 24 intravenous sessions. The lab examinations were performed at time T0 (beginning of the study) and time T1 (end of second month treatment). […] Values were presented as mean± standard deviation for quantitative variable and percentages for categorical variables. The two groups were compared by student’s t-test for quantitative variable and chi-square for the categorical variables. […]

[3] = test system: patients with non-alcoholic fatty liver disease; assay: NAFLD patients: liver biopsy histology, histology activity index (HAI) score; details: intravenous treatment group versus oral treatment group; four patients per group
Source text: A. Histology Examination: Only four patients in each group has accepted to undergo the liver biopsy (LB) before and after the treatment with intravenous UDCA and oral UDCA.

[4] = test system: patients with biliary colicky pain due to radiolucent gallstones; assay: Dissolution of gallbladder transparent stones and colicky pain, intravenous vs oral UDCA
Experimental: 20 patients were recruited aged 35 years to 65 years with sudden burst of biliary colicky pain due to radiolucent gallstones, diameter 0.3 to […] and altered liver enzymes. Some patients are also […] complaining of quite an intense pain with nausea and vomiting but without fever, negative inflammation markers (ESR, CRP) and slight leukocytosis, no rebound tenderness at the gallbladder manual exploration. […] were administered with 3500 mg of UDCA every 12 hours for 6 days from the cubital vein; the very first infusion at the admission was added with 20 mg hyoscine-N-butyl bromide and 75 mg diclofenac as the patients are distressed by excruciating pain.

[5] = test system: patients with liver metastasis and liver enzymes/bilirubin impairment undergoing cancer chemotherapy and liver failure; assay: Intravenous UDCA during cancer chemotherapy and liver failure: lab parameters and RSCL quality of life; details: intravenous 3500 mg
[6] = ten sessions in 3 weeks, T1, FIG. 4

Structure (SMILES): C[C@H](CCC(=O)O)[C@H]1CC[C@H]2[C@@H]3[C@@H](O)C[C@@H]4C[C@H](O)CC[C@]4(C)[C@H]3CC[C@]12C [UDCA, ursodeoxycholic acid]
- symptoms by questionnaire (narcolepsy, weakness, sweating, tachycardia, dizziness, dyspepsia, insomnia, reflux) ([1]; intravenous UDCA treatment, FIG. 1): all the patients evidenced improvement of symptoms
- symptoms by questionnaire (narcolepsy, weakness, sweating, tachycardia, dizziness, dyspepsia, insomnia, reflux) ([1]; orally UDCA treatment group, FIG. 2): symptoms improvement started later and were less marked
- liver parameters GGT, AST and ALT [2]: significant reduction
- regression of fat embedded liver and leucocytes infiltration into portal spaces [3]: more evident than in the oral treatment group
- colic pain at the end of first week ([4]; intravenous 3500 mg every 12 hours for 6 days, 20 patients, first infusion with 20 mg hyoscine-N-butyl bromide and 75 mg diclofenac): completely subsided
- relapse of colicky pain along the first week ([4]; intravenous 3500 mg every 12 hours for 6 days, 20 patients, with hyoscine-N-butyl bromide (20 mg) and diclofenac (75 mg)): never relapsed
- reappearance of colicky pain during the first 40 days ([4]; intravenous group, 3500 mg twice a week (once every 84 hours) for 3 months, n = 10): not in the intravenous administration group
- response of the liver insufficiency symptoms ([5]; ten sessions in 3 weeks (once every 68 hours), 100 patients): overall fair response
- Bilirubin [5, 6]: variably decreased
- albumin synthesis [5, 6]: variably increased
- functional lab exam, especially transaminase and bilirubin ([5]; ten sessions in 3 weeks, T1 vs T0, FIG. 3): markedly improved
- life quality (RSCL) ([5]; ten sessions in 3 weeks, T1 vs T0, FIG. 5): can effectively be improved

Reference: patent US20230016551A1, “METHOD FOR ADMINISTRATION OF URSODEOXYCHOLIC ACID” (SHILPA MEDICARE LIMITED, priority 2020, published 2023)
